The list shows a part of the results. The calls rarely recur for the same compound in another form.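 Kinases were expressed as nanoluciferase fusions in K562 cells and luminescence was read every 4 h between 2 and 18 h as percent of control, DMSO set to 100% and a positive control to 0%. A time point counts as decreased when the signal drops significantly (2 sigma). The hit call is the authors' own, does not follow from the count of time points alone, and its rule is not shown.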
The compounds below were run against ERBB3 (UniProt P21860) (assay: kinase-Nluc reporter destabilization hit call (1 = scored as downregulated) (binary); higher = compound decreases kinase abundance). Details: K562; 2-18 h.

The chains behind the UniProt entries cited, without tags or fusion partners.
UniProt P21860, whole entry: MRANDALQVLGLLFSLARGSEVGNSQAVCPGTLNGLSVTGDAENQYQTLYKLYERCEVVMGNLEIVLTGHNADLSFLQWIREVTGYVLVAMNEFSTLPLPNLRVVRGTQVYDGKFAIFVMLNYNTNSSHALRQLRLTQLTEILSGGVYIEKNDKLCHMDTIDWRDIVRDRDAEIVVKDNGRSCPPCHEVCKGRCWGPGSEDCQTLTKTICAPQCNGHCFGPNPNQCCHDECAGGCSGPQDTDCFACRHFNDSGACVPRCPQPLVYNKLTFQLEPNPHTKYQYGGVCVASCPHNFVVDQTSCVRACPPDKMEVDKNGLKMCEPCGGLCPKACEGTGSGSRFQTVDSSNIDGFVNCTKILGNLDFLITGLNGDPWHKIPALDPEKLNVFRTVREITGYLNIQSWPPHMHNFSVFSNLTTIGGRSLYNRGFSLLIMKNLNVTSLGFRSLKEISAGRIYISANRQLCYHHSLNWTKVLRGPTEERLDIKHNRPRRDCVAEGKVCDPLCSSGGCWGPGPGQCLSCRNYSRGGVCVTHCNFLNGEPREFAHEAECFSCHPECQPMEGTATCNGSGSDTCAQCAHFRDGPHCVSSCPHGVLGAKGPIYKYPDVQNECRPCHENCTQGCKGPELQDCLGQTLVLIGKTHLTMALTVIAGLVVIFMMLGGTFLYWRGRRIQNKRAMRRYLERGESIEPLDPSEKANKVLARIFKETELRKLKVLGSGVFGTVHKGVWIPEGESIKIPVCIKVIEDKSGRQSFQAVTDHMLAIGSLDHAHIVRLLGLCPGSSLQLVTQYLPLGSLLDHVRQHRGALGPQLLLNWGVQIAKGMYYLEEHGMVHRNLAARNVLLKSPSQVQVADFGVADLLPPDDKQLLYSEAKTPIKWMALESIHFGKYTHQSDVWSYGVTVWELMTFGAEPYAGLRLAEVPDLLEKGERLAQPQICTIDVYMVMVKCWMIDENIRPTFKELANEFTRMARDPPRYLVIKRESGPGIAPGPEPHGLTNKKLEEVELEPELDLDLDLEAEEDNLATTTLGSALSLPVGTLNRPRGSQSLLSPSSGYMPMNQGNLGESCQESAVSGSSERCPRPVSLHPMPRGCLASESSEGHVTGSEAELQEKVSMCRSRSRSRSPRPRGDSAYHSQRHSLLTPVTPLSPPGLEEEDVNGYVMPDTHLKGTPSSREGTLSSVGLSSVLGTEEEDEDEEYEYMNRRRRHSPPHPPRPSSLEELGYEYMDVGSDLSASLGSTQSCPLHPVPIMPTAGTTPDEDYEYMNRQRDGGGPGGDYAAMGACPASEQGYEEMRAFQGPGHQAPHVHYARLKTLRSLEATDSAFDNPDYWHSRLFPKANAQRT

kinase-Nluc reporter destabilization hit call, inactive:
CC(C)(C)n1nc(Cc2cccc3ccccc23)c2c(N)ncnc21 (10 µM) 0
CC1(C)CC=C(c2nc(C3CC(C)(C)OC(C)(C)C3)ccc2NC(=O)c2nc(C#N)c[nH]2)CC1 [Edicotinib] (2.5 µM) 0
CC(C)CC(=O)Nc1n[nH]c2c1CN(C(=O)C1CCN(C)CC1)C2(C)C (2.5 µM) 0
Nc1ncnc2c1c(-c1ccc(Oc3ccccc3)cc1)cn2C1CCCC1 (2.5 µM) 0
CC(=O)NCC(=O)N1[C@@H]2CC[C@H]1c1ccc(Nc3ncc(C(F)(F)F)c(NC4CCC4)n3)cc12 (2.5 µM) 0
Cc1nc(-c2cnc(NC(C)C)n(C)c2=O)ccc1Oc1ccnc(-c2cnn(C)c2)c1 (2.5 µM) 0
CN(C)C(=O)/C(C#N)=C/c1ccc(-c2nc3cnc4[nH]ccc4c3n2C2CCCCC2)o1 (10 µM) 0
CCCS(=O)(=O)Nc1ccc(F)c(C(=O)c2c[nH]c3ncc(Cl)cc23)c1F (10 µM) 0
COc1ccc2c(NC(=O)Nc3cccc(C(F)(F)F)n3)ccnc2c1 (10 µM) 0
CNC(=O)c1cccc(-c2ccc3c(N4CCOC[C@@H]4C)nc(N4CCOC[C@@H]4C)nc3n2)c1 [Vistusertib] (2.5 µM) 0
COCCNCCc1cccc(Nc2ncc3c(n2)-c2ccccc2[C@H](c2ccccc2F)C3)c1 [Derazantinib] (2.5 µM) 0
CNC(=O)c1ccccc1Nc1nc(Nc2ccc(N3CCOCC3)cc2OC)ncc1Cl (2.5 µM) 0

3 structures from above, ordered by formula weight, low to high.
kinase-Nluc reporter destabilization hit call, inactive:
CN(C)C(=O)/C(C#N)=C/c1ccc(-c2nc3cnc4[nH]ccc4c3n2C2CCCCC2)o1 (10 µM) 0
CC1(C)CC=C(c2nc(C3CC(C)(C)OC(C)(C)C3)ccc2NC(=O)c2nc(C#N)c[nH]2)CC1 [Edicotinib] (2.5 µM) 0
CNC(=O)c1cccc(-c2ccc3c(N4CCOC[C@@H]4C)nc(N4CCOC[C@@H]4C)nc3n2)c1 [Vistusertib] (2.5 µM) 0
